# Laboratory results: PubChem BioAssay AID1259254 (NCATS, 2017)
# Aim: 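Finding genes that stop cells copying their DNA twice in one cycle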 (primary screen)
# System: human HCT116 colorectal cancer cells
# Knock-down reagent: single siRNA against human genes
# Timing: 3 days
# Measured: 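Imaged Hoechst DNA stain sorts each cell into a cycle phase by DNA amount; per plate, G2 fraction set to 0% for non-targeting and 100% for GMNN siRNA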
# Reading the numbers: G2 robust z-score and G2 cells, % of GMNN control: higher = more G2 cells, more excess DNA replication
# Active means: 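An siRNA counts as active if its G2 robust z-score lies at least 5 MADs above the screen median; here such calls match roughly 38% of GMNN control or more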
# This is an unselected part of about 59,000 deposited reagents. About 1,550 of them (2.6%) were called active. 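G2 share is only a proxy for re-replication; each gene was hit by three separate siRNAs, and active genes were retested.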 A number with no mark means an inactive call. The numbers tell different reagents against one gene apart. Further read-outs or replicates are left out here. Not stated in the record: the amount of reagent.
gene symbol,siRNA no.,G2 robust z-score,"G2 cells, % of GMNN control"
ZC3H3 (zinc finger CCCH-type containing 3),1,9.22 (active),67.9
ZC3H3 (zinc finger CCCH-type containing 3),2,0.852,8.96
ZC3H3 (zinc finger CCCH-type containing 3),3,-0.626,-1.43
SLC22A7,1,-0.785,-2.56
SLC22A7,2,-0.574,-1.07
SLC22A7,3,-0.238,1.29
RNASE12 (ribonuclease A family member 12 (inactive)),1,3.27,26
RNASE12 (ribonuclease A family member 12 (inactive)),2,0.705,7.93
RNASE12 (ribonuclease A family member 12 (inactive)),3,0.311,5.15
EFNA2 (ephrin A2),1,-0.0418,2.67
EFNA2 (ephrin A2),2,7.97 (active),59.1
EFNA2 (ephrin A2),3,4.31,33.3
PYDC1 (pyrin domain containing 1),1,0.24,4.65
PYDC1 (pyrin domain containing 1),2,2.43,20.1
PYDC1 (pyrin domain containing 1),3,0.572,6.99
ZNF17 (zinc finger protein 17),1,-0.786,-2.56
ZNF17 (zinc finger protein 17),2,-1.39,-6.83
ZNF17 (zinc finger protein 17),3,-0.642,-1.55
CBX3P6 (CBX3 pseudogene 6),1,1.73,15.2
CBX3P6 (CBX3 pseudogene 6),2,-0.594,-1.22
CBX3P6 (CBX3 pseudogene 6),3,-0.875,-3.19
LRRC3B (leucine rich repeat containing 3B),1,-0.917,-3.48
LRRC3B (leucine rich repeat containing 3B),2,-0.975,-3.9
LRRC3B (leucine rich repeat containing 3B),3,0.483,6.37
DSC1 (desmocollin 1),1,-1.02,-4.23
DSC1 (desmocollin 1),2,-0.275,1.03
DSC1 (desmocollin 1),3,0.64,7.47
ZNRF1 (zinc and ring finger 1),1,-0.076,2.43
ZNRF1 (zinc and ring finger 1),2,-0.554,-0.927
ZNRF1 (zinc and ring finger 1),3,-0.0964,2.29
CERT1 (ceramide transporter 1),1,-1.57,-8.1
CERT1 (ceramide transporter 1),2,-0.63,-1.46
CERT1 (ceramide transporter 1),3,0.286,4.98
GPATCH4 (G-patch domain containing 4 (gene/pseudogene)),1,1.82,15.8
GPATCH4 (G-patch domain containing 4 (gene/pseudogene)),2,0.823,8.76
GPATCH4 (G-patch domain containing 4 (gene/pseudogene)),3,0.642,7.49
GRIK4 (glutamate ionotropic receptor kainate type subunit 4),1,0.611,7.27
GRIK4 (glutamate ionotropic receptor kainate type subunit 4),2,-0.256,1.17
GRIK4 (glutamate ionotropic receptor kainate type subunit 4),3,-0.213,1.47
CLEC11A (C-type lectin domain containing 11A),1,-0.611,-1.33
CLEC11A (C-type lectin domain containing 11A),2,-0.613,-1.34
CLEC11A (C-type lectin domain containing 11A),3,-0.985,-3.96
MICALL1 (MICAL like 1),1,0.478,6.33
MICALL1 (MICAL like 1),2,0.788,8.51
MICALL1 (MICAL like 1),3,-0.298,0.87
LSMEM1 (leucine rich single-pass membrane protein 1),1,2.48,20.4
LSMEM1 (leucine rich single-pass membrane protein 1),2,-0.768,-2.44
LSMEM1 (leucine rich single-pass membrane protein 1),3,-0.329,0.653
PIGA (phosphatidylinositol glycan anchor biosynthesis class A),1,-0.864,-3.11
PIGA (phosphatidylinositol glycan anchor biosynthesis class A),2,-0.277,1.02
PIGA (phosphatidylinositol glycan anchor biosynthesis class A),3,-0.95,-3.72
ISCA1 (iron-sulfur cluster assembly 1),1,-0.0491,2.62
ISCA1 (iron-sulfur cluster assembly 1),2,-0.814,-2.76
ISCA1 (iron-sulfur cluster assembly 1),3,0.031,3.19
SOWAHB (sosondowah ankyrin repeat domain family member B),1,-0.245,1.24
SOWAHB (sosondowah ankyrin repeat domain family member B),2,0.627,7.38
SOWAHB (sosondowah ankyrin repeat domain family member B),3,-0.657,-1.65
P2RY8 (P2Y receptor family member 8),1,-0.605,-1.29
P2RY8 (P2Y receptor family member 8),2,-0.344,0.549
P2RY8 (P2Y receptor family member 8),3,-0.0679,2.49
FZD1 (frizzled class receptor 1),1,2.14,18
FZD1 (frizzled class receptor 1),2,0.416,5.9
FZD1 (frizzled class receptor 1),3,-0.0386,2.7
DNAJC8 (DnaJ heat shock protein family (Hsp40) member C8),1,-0.0847,2.37
DNAJC8 (DnaJ heat shock protein family (Hsp40) member C8),2,-0.662,-1.69
DNAJC8 (DnaJ heat shock protein family (Hsp40) member C8),3,-0.954,-3.74
FAM174C (family with sequence similarity 174 member C),1,3.56,28
FAM174C (family with sequence similarity 174 member C),2,-0.226,1.38
FAM174C (family with sequence similarity 174 member C),3,0.25,4.73

Entries listed so far whose gene name begins with R or r:
gene symbol,siRNA no.,G2 robust z-score,"G2 cells, % of GMNN control"
RNASE12 (ribonuclease A family member 12 (inactive)),1,3.27,26
RNASE12 (ribonuclease A family member 12 (inactive)),2,0.705,7.93
RNASE12 (ribonuclease A family member 12 (inactive)),3,0.311,5.15
